The other results are listed elsewhere or left out. The main result of the screen is listed elsewhere. These columns were measured beside it and carry no call. The list favours compounds with an active or inconclusive main result. Words in brackets tell the shape of the fitted curve; partial curves, single points and poor fits give uncertain potencies.
Test: qHTS Assay to Find Inhibitors of Chronic Active B-Cell Receptor Signaling
Details: ABC-DLBCL IkBa-CBG/CBR reporter, luminescence ratio (green luciferase fused to IkBa over red control in TMD8 lymphoma cells), 4 h
Summary of the method: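 TMD8 ABC-DLBCL cells carrying doxycycline-inducible green luciferase fused to IkappaBalpha plus unfused red luciferase were exposed to compounds (up to 46 uM) for 4 hrs at 37C. Activity came from the overlap-corrected green/red luminescence ratio.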

[1] = measured here: CBR red luminescence, cell number
[2] = measured here: IkBa-CBG green luminescence

SMILES | AC50 [1] | AC50 [2]
COc1ccccc1CN(Cc1cc2cc(C)ccc2[nH]c1=O)Cc1nnnn1CC1CCCO1 (configuration not stated) | 7.31 µM [falling, partial curve, poor fit] | –
Cc1sc2ncnc(NCc3cccs3)c2c1C | 15.8 µM [rising, partial curve] | –
Cc1cccc(NC(=O)CN2CCCN(S(=O)(=O)c3ccc(Br)s3)CC2)c1 | 17.8 µM [falling, single point] | –
COc1ccc(OC)c2sc(N3CCCCC3)nc12 | 1.46 µM [rising, partial curve, poor fit] | –
CC(C)(c1ccccc1)c1ccc(OCCN)cc1 | 25.1 µM [falling, single point] | –
Cc1cccc(NC(=S)NCc2ccco2)n1 | 0.562 µM [rising, partial curve, poor fit] | –
N#C/C(=N\Nc1cccc(C(F)(F)F)c1)C(=O)c1ccsc1 | 12.6 µM [falling, partial curve] | –
COc1ccc(C)cc1NC(=O)c1ccc(OCc2c(C)noc2C)cc1 | 1.84 µM [rising, partial curve] | –
COC(=O)COC(=O)c1ccccc1NC(=O)c1ccccc1 | 20.6 µM [falling, partial curve] | –
COc1cccc(NC(=O)CSc2nc3ccccc3c(=O)n2Cc2cccs2)c1 | 2.91 µM [falling, partial curve, poor fit] | –
CC(C)[C@H](NS(=O)(=O)c1ccccc1)C(=O)OCC(=O)NCc1ccc2c(c1)OCO2 | 29.1 µM [falling, single point] | –
COc1ccc(/C=C\C(=O)O[C@@H]2C(O)C(O[C@@H]3OC(C)[C@H](O[C@@H]4OCC(O[C@H]5O[C@H](CO)[C@@H](O)C(O)C5O)C(O)C4O)C(O)C3O)[C@H](OC(=O)[C@]34CCC(C)(C)C[C@@H]3C3=CCC5[C@@]6(C)CC(O)C(O[C@@H]7OC(CO)C(O)[C@H](O)[C@H]7O)[C@@](C)(C(=O)O)C6CC[C@@]5(C)[C@]3(CO)CC4)O[C@H]2C)cc1 (some centres not stated) | 29.1 µM [falling, single point] | –
COCCCNC(=O)c1ccc2c3c(onc13)-c1ccccc1C2=O | 22.4 µM [falling, single point] | –
O=C(CCS(=O)(=O)c1ccccc1)Nc1nc2cc3c(cc2s1)OCCO3 | 10 µM [falling, partial curve] | –
Cc1ccc(-c2nc(N)n(S(=O)(=O)c3ccc(C)cc3)n2)cc1 | 3.98 µM [rising, full curve, poor fit] | –
COc1ccc(-c2cnc(SCC(=O)Nc3cc(C)on3)n2Cc2ccco2)cc1 | 22.4 µM [falling, single point] | –
CCn1c(SCC(=O)Nc2ccccc2)nc2nc3c(cc2c1=O)COC(C)(C)C3 | 15.8 µM [falling, single point] | –
CN(C)c1ccc(N=Nc2ccc(S(N)(=O)=O)cc2)cc1 | 15.8 µM [rising, partial curve, poor fit] | –
CCn1ncc(Br)c1C(=O)Nc1ccc(C(=O)OC(C)C)cc1 | 0.0461 µM [rising, full curve, poor fit] | –
CC1(C)CC(=O)C=C(NC2=CC3OC(c4ccccc4)OCC3OC2=O)C1 (configuration not stated) | 7.31 µM [falling, partial curve] | 4.61 µM [rising, full curve, poor fit]
Cc1cccc(-c2nc3cc([N+](=O)[O-])ccc3o2)c1 | 0.398 µM [rising, full curve, poor fit] | –

SMILES | AC50 [1] | AC50 [2]
CN(C)CCCN(C(=O)c1cc(-c2cccs2)nc2ccccc12)c1nc2ccc(F)cc2s1 | 35.5 µM [falling, single point] | –
CC1CCc2c(sc3nc(CN4CCOCC4)nc(Sc4ccccc4)c23)C1 (configuration not stated) | 16.4 µM [rising, partial curve, poor fit] | –
O=C(/C=C/c1cnc2ccccc2n1)NC1CCCCCC1 | 8.2 µM [falling, partial curve] | –
CC1CCCN(C(c2cccs2)c2nnnn2Cc2ccccc2)C1 (configuration not stated) | 18.4 µM [falling, single point] | –
CCOc1ccccc1C=Nc1ccccc1C(=O)Nc1ccccc1 | 29.1 µM [falling, single point] | –
COc1cc2c(c(OC)c1OC)-c1ccc(OC)c(=O)cc1C(NC(C)=O)CC2 (configuration not stated) | 0.355 µM [rising, full curve, poor fit] | 0.251 µM [falling, full curve, poor fit]
Cc1cc(=O)oc2cc(N3C(=O)CC(Cc4ccccc4)C3=O)ccc12 (configuration not stated) | 5.01 µM [rising, partial curve] | –
O=C(Nc1ccc(-c2nc3cccnc3s2)cc1)C1CCCO1 (configuration not stated) | 23.1 µM [falling, partial curve] | –
COc1ccc(N=C2NC(=O)S/C2=C\c2ccc(N(C)C)cc2)cc1 | 3.16 µM [rising, full curve, poor fit] | –
Cc1c(C)c2ccc(OCC(=O)N3CCOCC3)c(C)c2oc1=O | 35.5 µM [falling, single point] | –
Cc1cccc(CC(=O)NCCS(=O)(=O)N2CCN(c3cccc(Cl)c3)CC2)c1 | 25.9 µM [falling, single point] | –
Cc1cc(C(=S)N2CCOCC2)c(C)n1-c1ccc(Cl)cc1 | 29.1 µM [falling, single point] | –
Cc1ccc(S(=O)(=O)CC(=O)Nc2nc3c(C)cccc3s2)cc1 | 35.5 µM [falling, single point] | 15.8 µM [rising, partial curve, poor fit]
COc1cccc(NC(=O)NC2(C(=O)N3CCC(O)CC3)CCCCC2)c1 | 12.6 µM [falling, partial curve, poor fit] | –
COc1cccc(NC(=O)c2cc(Cl)nnc2Cl)c1 | 15.8 µM [falling, single point] | –
COc1cccc(NC(=O)C(c2ccccc2)N2CCNC(=O)C2)c1 (configuration not stated) | 7.08 µM [rising, partial curve] | –
COc1ccc(C(=O)OC(C)CN2CCOCC2)cc1 (configuration not stated) | 5.62 µM [rising, single point] | –
CCOc1cc(CNCCCN2CCOCC2)cc(Br)c1OCC(=O)Nc1cccc(C(F)(F)F)c1 | 14.1 µM [falling, single point] | –
COc1cc2c(cc1OC)/C(=C/C#N)NC(C)(C)C2 | 0.891 µM [rising, full curve] | 2.51 µM [falling, partial curve, poor fit]
Cc1ccc2nc3sc(C(=O)Nc4ccc(N5CCOCC5)cc4)c(N)c3cc2c1 | 8.2 µM [falling, partial curve, poor fit] | –
O=C(CN1CCc2cc3c(cc2C1)OCCCO3)Nc1cccc([N+](=O)[O-])c1 | 7.94 µM [falling, partial curve, poor fit] | –

SMILES | AC50 [1] | AC50 [2]
O=C(CCCN1C(=O)/C(=C/c2ccccc2Cl)SC1=S)Nc1ccccn1 | 2.59 µM [falling, full curve] | –
CC(=O)c1ccc(C(=O)N2CCCC(CO)(Cc3ccccc3C)C2)s1 (configuration not stated) | 5.62 µM [rising, single point] | –
O=C(Nc1ncn[nH]1)c1ccc(Cl)cc1Cl | 6.31 µM [rising, single point] | –
CC(NC(=O)c1ccccc1)C(=O)OCC(=O)N1c2ccccc2Sc2ccccc21 (configuration not stated) | 0.731 µM [rising, full curve, poor fit] | –
Cc1[nH]c2ccc(C(=O)Nc3ccncc3)cc2c1C | 35.5 µM [falling, single point] | –
CCCSc1ncc(Cl)c(C(=O)Nc2ccc(S(=O)(=O)N3CC(C)OC(C)C3)cc2)n1 (configuration not stated) | 7.31 µM [falling, partial curve] | –
Cc1ccn2c(CNCC3COCCO3)c(C(=O)N3CCCCCC3)nc2c1 (configuration not stated) | 3.55 µM [rising, full curve, poor fit] | –
CCc1ccc(NC(=O)c2ccc3ncsc3c2)cc1 | 8.91 µM [falling, partial curve] | –
CSCC[C@H](NC(=O)c1cc([N+](=O)[O-])ccc1Cl)c1nc2ccccc2[nH]1 | 20.6 µM [falling, single point] | –
Cc1cc(C)nc(SCc2ccc([N+](=O)[O-])cc2)n1 | 4.47 µM [rising, full curve, poor fit] | –
CCOC(=O)c1c(O)c2ccccc2oc1=O | 4.47 µM [falling, full curve, poor fit] | –
Cc1cc(NC(=O)C2CCN(S(=O)(=O)c3cccs3)CC2)no1 | 10 µM [falling, partial curve, poor fit] | –
O=C(CNC(=O)c1cccc(F)c1)OCC(=O)N1CCCc2ccccc21 | 8.2 µM [rising, partial curve] | –
O=C(Nc1nc2ccccc2s1)c1ccc(OCC2CCCO2)cc1 (configuration not stated) | 29.1 µM [falling, single point] | –
Nc1ncnc(Nc2ccccn2)c1[N+](=O)[O-] | 35.5 µM [falling, single point] | –
Cc1ccc(C(=O)Nc2ncc(C)s2)s1 | 14.1 µM [falling, single point] | –
CCN(CC)c1ccc(NC(=O)c2cc(OC)cc(OC)c2)c(C)c1 | 7.31 µM [rising, partial curve, poor fit] | 14.6 µM [falling, partial curve, poor fit]
CCCn1nnnc1SCC(=O)NNC(=O)C1CCCCC1 | 0.631 µM [rising, full curve, poor fit] | –
N#Cc1cccc(NC(=O)CNc2cccc(S(=O)(=O)N3CCCCC3)c2)c1 | 16.4 µM [falling, single point] | 7.31 µM [rising, partial curve, poor fit]

3 structures out of the list, arranged by length of the SMILES, ascending.
SMILES | AC50 [1] | AC50 [2]
Cc1ccc(C(=O)Nc2ncc(C)s2)s1 | 14.1 µM [falling, single point] | –
O=C(CNC(=O)c1cccc(F)c1)OCC(=O)N1CCCc2ccccc21 | 8.2 µM [rising, partial curve] | –
CCCSc1ncc(Cl)c(C(=O)Nc2ccc(S(=O)(=O)N3CC(C)OC(C)C3)cc2)n1 (configuration not stated) | 7.31 µM [falling, partial curve] | –

Retrieved by structure from above (two):
SMILES | AC50 [1] | AC50 [2]
CCN(CC)c1ccc(NC(=O)c2cc(OC)cc(OC)c2)c(C)c1 | 7.31 µM [rising, partial curve, poor fit] | 14.6 µM [falling, partial curve, poor fit]
CCCSc1ncc(Cl)c(C(=O)Nc2ccc(S(=O)(=O)N3CC(C)OC(C)C3)cc2)n1 (configuration not stated) | 7.31 µM [falling, partial curve] | –

Reference: PubChem BioAssay AID493014 (National Center for Advancing Translational Sciences (NCATS), 2011)
